The values below are quoted from earlier work in US20230340555A1, “PRODUCTION OF GLYCOSYLATED CANNABINOIDS” (WILLOW BIOSCIENCES, INC., priority 2020, published 2023).

For this data set the following is noted: cited from earlier work.

Regarding `C=C(C)[C@@H]1CCC(C)=C[C@H]1c1c(O)cc(CCCCC)cc1O` [CBD, cannabidiol], the solubility in water result was “less than 0.1 mg/ml”.
